Reference: article PMC3783171, “Sulfolobus chromatin proteins modulate strand displacement by DNA polymerase B1”

Tests used:
[1] = biological target: T1, Cren7 (Sulfolobus solfataricus) (UniProt Q97ZE3); assay: thermal denaturation (A260); details: R15 strand is RNA; Tm: 10 mM potassium phosphate pH 7.0, 20-90 C; recombinant protein; DNA:RNA hybrid
T1 sequence (looked up, limits assumed): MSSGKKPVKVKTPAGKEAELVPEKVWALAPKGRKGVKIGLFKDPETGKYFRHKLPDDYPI

[2] = biological target: T1, Cren7 (Sulfolobus solfataricus); assay: EMSA; details: 4 mM Mg2+, 25 C; R30 strand is RNA; EMSA: 50 mM Tris-HCl pH 8.0, 2 mM beta-mercaptoethanol, 0.1 mg/ml BSA, 4 mM MgCl2, 5% glycerol, 2 nM probe, 10 min at 25 C (room temperature), 5% PAGE in 0.1x TBE; recombinant protein; label: 32P on R30; DNA:RNA hybrid

Sequence	binding result [1]	binding result [2]
UGCAUCCUUCAAGAC / GTCTTGAAGGATGCA [15-bp RNA:DNA hybrid (R15/Com15)]	binds more weakly	–
UGCUUCCUUCAAUGUGCUGGGAUCCUACAA / TTGTAGGATCCCAGCACATTGAAGGAAGCA [30-bp RNA:DNA hybrid (R30/Com30)]	–	binds more weakly

Construct, isoform or probe ends are uncertain for at least one entry. A weaker result is weaker than the reference pair of the same experiment. Tags and fusion partners may be left off the protein sequences shown.
